Source: PubChem BioAssay AID652163 (Broad Institute, 2013)
Hit rate of the full screen: of about 360,000 compounds, about 500 (0.14%) were called active. Inconclusive results, whose numbers are uncertain, are shown with a selection of clear calls.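 How the source made its calls: active means mean inhibition of at least 70% across replicates, with every replicate also reaching that level; inconclusive means mean inhibition reaches 70% but some replicates fall short; inactive means mean inhibition below 70%.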

Amino acid sequences for entries named in this document (tags omitted).
UniProt P26447, whole entry, looked up: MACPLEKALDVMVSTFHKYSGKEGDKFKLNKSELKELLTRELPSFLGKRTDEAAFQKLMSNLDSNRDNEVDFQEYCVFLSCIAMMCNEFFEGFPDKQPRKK

Molecular target: Protein S100-A4 (Homo sapiens) (UniProt P26447)
Experiment: human S100A4 protein-peptide interaction blockers – biochemical, fluorescence polarization, TAMRA-MyoIIA peptide, primary screen (AID 652163)
Settings: at 10.7 µM, hits give high values
Outline: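 System – human S100A4 monomer protein, biochemical binding assay · Buffer or medium – Calcium-containing HEPES buffer, pH 7.2 · Timing – 5 min between mix addition and reading · Also added – TAMRA-labelled myosin IIA heavy-chain peptide probe, 5 nM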

Compound | inhibition
CCC(=O)N1[C@@H]2Cn3c(ccc(-c4ccc(F)cc4)c3=O)[C@H]1[C@@H](C(=O)OC)[C@@H]2CO | inactive: 1.04%
Cc1ccc2c(c1)C1C[N+](C)(CC(=O)c3ccc(Cl)cc3Cl)CCC1N2C(=O)c1ccc(F)cc1 (configuration not stated) | inactive: 2.2%
CN1/C(=C\C=C2C(=O)NC(=S)NC2=O)C(C)(C)c2ccccc21 | inconclusive: 91.5%
Oc1cc(Cl)c(Cl)c(Cl)c1 | inactive: -25.2%
N#Cc1cccc(-c2ccc([C@H]3[C@@H](CO)N4CCCCN(C(=O)Cc5ccncc5)C[C@@H]34)cc2)c1 | inactive: -3.36%
C[n+]1c2ccccc2nc2ccc(NCCO)cc21 | active: 192%
CC(C)CC#Cc1ccc([C@@H]2[C@H](CO)N3CCCCN(C(=O)Cc4ccccn4)C[C@@H]23)cc1 | inactive: -13.2%
O=C1NC(=O)N(c2ccccc2F)C(=O)/C1=C/c1ccc(Sc2nc3ccccc3[nH]2)o1 | active: 171%
O=C(Nc1ccc(Cl)cc1)N1CC2CC(C1)c1cccc(=O)n1C2 (configuration not stated) | inconclusive: 83.9%
CC(C)C[C@@H]1COc2cccc(N3CCN(C)CC3)c2S(=O)(=O)N1 | inactive: 11.7%
CC[n+]1c(-c2ccccc2)c2cc(N)ccc2c2ccc(N)cc21 | active: 130%
c1ccc(-c2ccncc2)cc1 | active: 99%
O=C(O)C(Br)CBr (configuration not stated) | active: 99.7%
CCOC(=O)c1c(C)n(Cc2ccccc2)c2ccc(O)cc12 | inactive: 3.78%
O=[N+]([O-])c1cc(Cl)c(Cl)cc1Cl | inconclusive: 75%
O=[N+]([O-])c1ccc(N2CCCCCC2)c2nonc12 | inconclusive: 77.5%
Cc1ccc(NC(=O)CCNC(=O)N2C[C@H]3C[C@@H](C2)c2cccc(=O)n2C3)c(C)c1 | inactive: -2.29%
Cc1ccc(N2C(=O)NC(=O)/C(=C\c3cn(CC(=O)O)c4ccccc34)C2=O)cc1 | inconclusive: 96.3%
CC1CN1c1cc2c(c3c1ccn3C)C1CCC2C1 (configuration not stated) | inactive: -7.09%
COC(=O)C1=C(c2ccc(-c3ccccc3)c(F)c2)C[C@@H]2CC[C@H]1N2C(=O)NCc1cccc2ccccc12 | inconclusive: 74.2%
CC(C)COc1ccc(Cc2c(O)[nH]c(=S)[nH]c2=O)cc1 | inconclusive: 81%
C[n+]1c(-c2ccccc2)c2cc(N)ccc2c2ccc(N)cc21 | active: 126%

Single entries from the list.
For inhibition, O=C1NC(=O)N(c2ccccc2F)C(=O)/C1=C/c1ccc(Sc2nc3ccccc3[nH]2)o1 has the entry active: 171%
For inhibition, N#Cc1cccc(-c2ccc([C@H]3[C@@H](CO)N4CCCCN(C(=O)Cc5ccncc5)C[C@@H]34)cc2)c1 has the entry inactive: -3.36%
